For the assay, the target named is D(3) dopamine receptor (Homo sapiens, UniProt P35462). The assay can be described thus: biochemical.

Sequences of proteins named here, by UniProt entry; tags and fusion partners are left off.
UniProt P35462, whole entry: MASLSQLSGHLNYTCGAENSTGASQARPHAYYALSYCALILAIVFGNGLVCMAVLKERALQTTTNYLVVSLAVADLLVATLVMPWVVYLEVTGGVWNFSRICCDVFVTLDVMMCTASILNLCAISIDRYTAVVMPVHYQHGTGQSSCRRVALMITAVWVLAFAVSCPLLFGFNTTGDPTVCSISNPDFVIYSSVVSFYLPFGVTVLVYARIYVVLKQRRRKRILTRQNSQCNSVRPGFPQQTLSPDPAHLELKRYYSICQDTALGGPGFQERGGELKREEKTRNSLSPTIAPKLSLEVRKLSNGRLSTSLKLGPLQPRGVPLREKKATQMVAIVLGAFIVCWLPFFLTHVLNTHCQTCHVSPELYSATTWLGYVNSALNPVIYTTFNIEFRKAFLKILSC

The source of these data is ChEMBL document CHEMBL1148822, “Principal component analysis differentiates the receptor binding profiles of three antipsychotic drug candidates from current antipsychotic drugs” (J Med Chem, 2007).

The Ki is a dissociation constant, usually derived from enzyme kinetics or from competition with a known ligand. A higher Ki goes with a looser hold on the target.

For the compound `OCCOCCN1CCN(C2=Nc3ccccc3Sc3ccccc32)CC1` [QUETIAPINE], affinity was put at a Ki of 0.251 µM.
